# Experimental data taken from publication doi:10.1101/2021.09.27.461997.
# No constants are given. Whether binding was seen depends on the method and setting. In cells and extracts the contact can be indirect. Binding can be weak; no strength is given.
# B1: AtLORE-Km (kinase-mutated AtLORE, K516A in the conserved ATP binding site), full length (receptor, UniProt O64782 22-805)
# chain: AINTSSPLSIRQTLSSPGGFYELGFFSPNNTQNQYVGIWFKKIVPRVVVWVANRDTPVTSSAANLTISSNGSLILLDGKQDVIWSTGKAFTSNKCHAELLDTGNFVVIDDVSGNKLWQSFEHLGNTMLPQSSLMYDTSNGKKRVLTTWKSNSDPSPGEFSLEITPQIPTQGLIRRGSVPYWRCGPWAKTRFSGISGIDASYVSPFSVVQDTAAGTGSFSYSTLRNYNLSYVTLTPEGKMKILWDDGNNWKLHLSLPENPCDLYGRCGPYGLCVRSDPPKCECLKGFVPKSDEEWGKGNWTSGCVRRTKLSCQAKSSMKTQGKDTDIFYRMTDVKTPDLHQFASFLNAEQCYQGCLGNCSCTAFAYISGIGCLVWNGELADTVQFLSSGEFLFIRLASSELAGSSRRKIIVGTTVSLSIFLILVFAAIMLWRYRAKQNDAWKNGFERQDVSGVNFFEMHTIRTATNNFSPSNKLGQGGFGPVYKGKLVDGKEIGVARLASSSGQGTEEFMNEITLISKLQHRNLVRLLGYCIDGEEKLLIYEFMVNKSLDIFIFDPCLKFELDWPKRFNIIQGIARGLLYLHRDSRLRVIHRDLKVSNILLDDRMNPKISDFGLARMFQGTQYQDNTRRVVGTLGYMSPEYAWAGLFSEKSDIYSFGVLMLEIISGKRISRFIYGDESKGLLAYTWDSWCETGGSNLLDRDLTDTCQAFEVARCVQIGLLCVQHEAVDRPNTLQVLSMLTSATDLPVPKQPIFAVHTLNDMPMLQANSQDFLSVNEMTESMIQGR
# Tests used:
# [1] = molecular target: AtLORE-TMD-ICD-Km (AtLORE truncation lacking the extracellular domain, kinase-mutated) (Arabidopsis thaliana); test: co-IP
# [2] = molecular target: AtLORE-ICD-Km (cytosolic intracellular domain of AtLORE, kinase-mutated) (Arabidopsis thaliana); test: co-IP
# [3] = molecular target: AtLORE-ECD-TMD (AtLORE truncation lacking the intracellular domain) (Arabidopsis thaliana); test: co-IP
# [4] = molecular target: AtLORE-TMD-ICD-Km (AtLORE truncation lacking the extracellular domain, kinase-mutated) (Arabidopsis thaliana); test: FRET or BRET
# [5] = molecular target: AtLORE-ECD-TMD (AtLORE truncation lacking the intracellular domain) (Arabidopsis thaliana); test: FRET or BRET
binder,measurement,setting,value
B1,binding,[1],binds
same,binding,[2],binds weakly
same,binding,[3],binds
same,binding,[4],binds
same,binding,[5],binds
